Among all 31,000 sequences or so, about 1,400 (4.5%) were called active.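 How the source made its calls: active means median seed-adjusted z-score above 1 or below -1; inactive means the rest.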 The list shows a part of the results.

The nature of the test: Novel Modifiers of Survival Motor Neuron (SMN) Protein: Gene Identification via Genome-wide siRNA Screen.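 Further: luminescence tracks full-length SMN protein made from the SMN2 reporter.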 The settings on record: HEK293T SMN2-luciferase reporter, siRNA knockdown, 72 h; actives lie on both sides. The essentials:
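siRNA screen, 10418 genes ×3 siRNAs; 1 pmol/well, lipid reverse transfection into HEK293T SMN2-luc reporter line. 72 h, 37 °C, 5% CO2; ONE-Glo readout. Data: neg-ctrl normalized, log10, MAD; hit = MAD >1.0 or < -1.0.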
For orientation: In a reporter assay the amount or activity of a reporter protein is the signal.
Regarding CAGAAAUCCUGAACUAUGATT against STK17B, the median seed-adjusted z-score is inactive: -0.971.
The result for GGAUGAGUACGAUACCGAATT against ZDHHC17 reads inactive: 0.526; that for GGGCGGCACCAGAUUGUUATT against NPM3, inactive: 0.0417; that for GACCUGAUGUUCGACCUGATT against SOX11, inactive: 0.02.
GGAAUGGUCUGGUACAUGUTT against SLC17A6: the median seed-adjusted z-score was inactive: 0.339.
On to GCAAUUUGAUUCGUUCAGATT against TRIP12, for which the median seed-adjusted z-score was inactive: 0.16.
For GUAUACCGGUCAUACCGUATT against ZNF223, the median seed-adjusted z-score is inactive: 0.367.
Consider GCUGGGAAAGUAGAAGAAATT against CCNK, for which the median seed-adjusted z-score was inactive: -0.717.
In the case of CCAACAUACUAGUCAAUAATT against EFTUD1, the median seed-adjusted z-score was active: -1.39.
Under AGACUUUCGAACAAACAAATT against NKX6-1 stands inactive: -0.0317; under GCCGAGGAACAAUCUCUCATT against RASGRP4, inactive: 0.162; under UCGGUGACGUGAUCCAGAATT against FGD2, inactive: 0.0293.
Under GAUUUUGGUUUCUCAUGUATT against GPR174 stands inactive: -0.324.
Turning to AGAAGACCCGUAGACUGAATT against NEUROG2, the median seed-adjusted z-score is inactive: -0.366.
As to AGAUCAUCCUGACCGUGGATT against GUCY2D, the median seed-adjusted z-score is inactive: 0.
GAAUGCCUUCCAUUAGAUATT against RG9MTD1: the median seed-adjusted z-score was inactive: -0.375.
With CAGCGACUCUGUAAGCACATT against CRTAM, the median seed-adjusted z-score was inactive: 0.346.
GGAUUCAGCUAUUCUGGAATT against BAK1: the median seed-adjusted z-score is inactive: 0.0419.
For the sequence AAAACUUCGUUUCCAUCAATT against ZNF284, the median seed-adjusted z-score was inactive: 0.21.
Take GACUUCCCGGAGUUCCUGATT against CALM3: the median seed-adjusted z-score is inactive: 0.225.
In the case of CCAACAAACUCACCAUACATT against KREMEN1, the median seed-adjusted z-score is inactive: 0.

For the origin of these results see PubChem BioAssay AID1347426 (Functional Genomics Laboratory (NCATS/FGL), 2020).
